The supplement of paper PMC7666118
This is one part of the list.

Sequences of proteins named here, by UniProt entry; tags and fusion partners are left off. A change or cut given only in a name is not applied to a line headed by its entry.
UniProt Q9NPH0: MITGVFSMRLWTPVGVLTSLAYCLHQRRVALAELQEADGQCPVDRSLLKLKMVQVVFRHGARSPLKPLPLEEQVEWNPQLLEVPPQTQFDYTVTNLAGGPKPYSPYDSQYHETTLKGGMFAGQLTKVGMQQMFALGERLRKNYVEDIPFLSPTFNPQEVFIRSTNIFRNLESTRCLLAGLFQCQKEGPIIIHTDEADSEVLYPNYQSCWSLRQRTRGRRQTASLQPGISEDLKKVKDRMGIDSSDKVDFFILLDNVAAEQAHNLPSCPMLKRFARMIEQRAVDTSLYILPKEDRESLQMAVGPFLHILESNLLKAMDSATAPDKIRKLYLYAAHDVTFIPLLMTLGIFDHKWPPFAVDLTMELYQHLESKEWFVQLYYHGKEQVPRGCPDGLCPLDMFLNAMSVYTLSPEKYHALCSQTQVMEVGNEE
UniProt P58335, whole entry: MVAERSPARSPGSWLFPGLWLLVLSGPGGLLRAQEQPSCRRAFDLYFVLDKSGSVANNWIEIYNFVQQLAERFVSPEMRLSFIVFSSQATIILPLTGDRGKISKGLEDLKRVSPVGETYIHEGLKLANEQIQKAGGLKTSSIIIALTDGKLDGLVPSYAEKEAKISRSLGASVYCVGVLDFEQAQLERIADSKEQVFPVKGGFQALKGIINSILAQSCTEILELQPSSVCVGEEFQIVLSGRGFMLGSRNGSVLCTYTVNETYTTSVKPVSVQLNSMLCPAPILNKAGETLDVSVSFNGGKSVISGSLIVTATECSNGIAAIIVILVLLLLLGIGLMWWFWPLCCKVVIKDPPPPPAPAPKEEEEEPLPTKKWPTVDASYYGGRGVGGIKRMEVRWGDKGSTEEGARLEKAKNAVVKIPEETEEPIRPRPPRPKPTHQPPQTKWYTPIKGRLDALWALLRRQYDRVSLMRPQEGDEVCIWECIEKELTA
UniProt Q99943: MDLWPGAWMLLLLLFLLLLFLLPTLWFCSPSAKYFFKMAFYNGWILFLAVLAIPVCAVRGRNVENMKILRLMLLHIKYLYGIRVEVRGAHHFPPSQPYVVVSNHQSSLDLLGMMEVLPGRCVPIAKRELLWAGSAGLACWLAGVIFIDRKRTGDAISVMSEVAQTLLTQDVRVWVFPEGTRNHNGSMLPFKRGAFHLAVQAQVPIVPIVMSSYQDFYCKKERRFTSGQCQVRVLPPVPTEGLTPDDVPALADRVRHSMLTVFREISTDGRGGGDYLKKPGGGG
UniProt P55263: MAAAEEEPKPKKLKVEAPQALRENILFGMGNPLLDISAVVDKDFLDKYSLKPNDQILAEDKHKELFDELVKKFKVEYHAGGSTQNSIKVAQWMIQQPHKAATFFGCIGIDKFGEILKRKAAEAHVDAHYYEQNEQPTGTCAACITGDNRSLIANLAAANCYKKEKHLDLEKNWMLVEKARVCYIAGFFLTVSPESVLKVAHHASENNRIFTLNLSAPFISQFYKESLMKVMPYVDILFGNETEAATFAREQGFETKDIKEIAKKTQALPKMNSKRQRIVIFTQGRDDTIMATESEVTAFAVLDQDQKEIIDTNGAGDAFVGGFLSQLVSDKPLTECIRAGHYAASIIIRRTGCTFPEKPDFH
UniProt O00116: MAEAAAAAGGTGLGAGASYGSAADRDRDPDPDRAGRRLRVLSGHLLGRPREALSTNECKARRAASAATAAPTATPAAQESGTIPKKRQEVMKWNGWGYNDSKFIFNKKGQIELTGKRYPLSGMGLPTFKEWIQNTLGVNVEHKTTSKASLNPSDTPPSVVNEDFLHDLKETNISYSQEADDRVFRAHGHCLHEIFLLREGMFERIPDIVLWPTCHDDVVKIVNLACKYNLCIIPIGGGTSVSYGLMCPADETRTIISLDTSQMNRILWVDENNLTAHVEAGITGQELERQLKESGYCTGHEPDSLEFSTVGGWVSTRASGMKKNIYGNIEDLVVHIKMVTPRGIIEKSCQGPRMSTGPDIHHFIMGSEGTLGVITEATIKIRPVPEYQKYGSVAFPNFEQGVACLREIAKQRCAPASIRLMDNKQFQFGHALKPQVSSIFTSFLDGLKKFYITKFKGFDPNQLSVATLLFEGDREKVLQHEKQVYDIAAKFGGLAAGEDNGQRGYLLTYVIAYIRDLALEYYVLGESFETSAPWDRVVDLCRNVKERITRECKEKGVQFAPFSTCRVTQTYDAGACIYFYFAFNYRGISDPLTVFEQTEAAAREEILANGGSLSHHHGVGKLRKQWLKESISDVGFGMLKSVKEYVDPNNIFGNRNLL
UniProt O75891: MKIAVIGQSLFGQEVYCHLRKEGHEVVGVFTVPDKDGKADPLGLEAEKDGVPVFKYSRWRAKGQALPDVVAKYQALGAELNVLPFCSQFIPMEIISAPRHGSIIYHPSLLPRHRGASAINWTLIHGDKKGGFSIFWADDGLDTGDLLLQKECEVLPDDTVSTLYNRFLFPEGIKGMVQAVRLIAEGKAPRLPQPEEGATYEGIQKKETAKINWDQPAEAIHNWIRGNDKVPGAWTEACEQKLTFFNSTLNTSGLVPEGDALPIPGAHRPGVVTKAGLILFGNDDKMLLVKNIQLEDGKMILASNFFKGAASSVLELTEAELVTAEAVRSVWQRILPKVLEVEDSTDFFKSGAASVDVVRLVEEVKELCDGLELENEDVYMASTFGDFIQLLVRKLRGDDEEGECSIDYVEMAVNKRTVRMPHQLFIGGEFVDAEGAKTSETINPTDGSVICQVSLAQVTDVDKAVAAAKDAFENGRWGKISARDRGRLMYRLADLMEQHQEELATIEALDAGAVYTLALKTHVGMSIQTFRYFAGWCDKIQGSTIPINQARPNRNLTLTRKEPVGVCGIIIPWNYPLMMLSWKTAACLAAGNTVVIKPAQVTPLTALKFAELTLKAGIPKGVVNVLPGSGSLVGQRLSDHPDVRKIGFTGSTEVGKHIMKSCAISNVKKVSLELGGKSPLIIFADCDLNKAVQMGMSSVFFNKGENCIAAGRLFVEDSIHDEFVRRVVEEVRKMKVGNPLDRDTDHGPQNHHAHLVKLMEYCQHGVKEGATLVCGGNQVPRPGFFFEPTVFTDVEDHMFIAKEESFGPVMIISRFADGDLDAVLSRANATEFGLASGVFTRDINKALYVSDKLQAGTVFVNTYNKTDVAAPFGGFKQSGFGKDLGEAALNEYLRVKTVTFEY
UniProt Q9UH17: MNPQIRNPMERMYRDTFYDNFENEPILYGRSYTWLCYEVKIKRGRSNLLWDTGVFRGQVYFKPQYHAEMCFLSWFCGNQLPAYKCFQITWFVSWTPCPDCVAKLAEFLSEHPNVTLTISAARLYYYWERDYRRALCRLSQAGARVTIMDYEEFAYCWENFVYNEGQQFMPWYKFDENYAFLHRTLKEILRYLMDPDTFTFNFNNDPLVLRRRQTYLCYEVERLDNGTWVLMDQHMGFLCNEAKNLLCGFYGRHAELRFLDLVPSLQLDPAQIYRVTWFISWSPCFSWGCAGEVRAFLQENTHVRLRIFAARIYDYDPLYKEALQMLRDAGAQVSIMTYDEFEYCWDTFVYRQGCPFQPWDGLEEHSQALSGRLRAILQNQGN
UniProt O14672: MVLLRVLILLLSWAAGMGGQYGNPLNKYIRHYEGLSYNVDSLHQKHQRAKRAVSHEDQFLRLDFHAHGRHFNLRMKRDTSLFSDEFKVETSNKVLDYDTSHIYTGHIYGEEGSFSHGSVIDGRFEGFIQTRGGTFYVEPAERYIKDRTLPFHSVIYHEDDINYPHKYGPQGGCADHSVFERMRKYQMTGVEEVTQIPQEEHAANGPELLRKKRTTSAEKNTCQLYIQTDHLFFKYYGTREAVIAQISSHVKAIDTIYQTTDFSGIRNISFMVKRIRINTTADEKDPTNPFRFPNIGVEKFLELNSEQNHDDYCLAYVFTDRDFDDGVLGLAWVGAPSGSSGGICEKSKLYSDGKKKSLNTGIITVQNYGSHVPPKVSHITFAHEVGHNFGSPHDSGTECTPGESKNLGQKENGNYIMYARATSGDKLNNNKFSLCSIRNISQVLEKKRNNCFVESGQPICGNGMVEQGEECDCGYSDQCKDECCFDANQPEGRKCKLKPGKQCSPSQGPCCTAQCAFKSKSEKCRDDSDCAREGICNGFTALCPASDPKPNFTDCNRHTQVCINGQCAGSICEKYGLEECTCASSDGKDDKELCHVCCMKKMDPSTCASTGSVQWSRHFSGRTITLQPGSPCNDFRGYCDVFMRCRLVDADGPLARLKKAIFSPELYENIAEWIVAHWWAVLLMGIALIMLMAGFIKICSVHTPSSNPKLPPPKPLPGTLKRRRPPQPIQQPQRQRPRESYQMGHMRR
UniProt Q8N2Z9: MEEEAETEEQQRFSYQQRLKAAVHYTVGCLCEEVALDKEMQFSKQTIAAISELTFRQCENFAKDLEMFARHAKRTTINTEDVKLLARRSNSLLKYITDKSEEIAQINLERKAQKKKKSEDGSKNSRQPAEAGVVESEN
UniProt Q9NW15: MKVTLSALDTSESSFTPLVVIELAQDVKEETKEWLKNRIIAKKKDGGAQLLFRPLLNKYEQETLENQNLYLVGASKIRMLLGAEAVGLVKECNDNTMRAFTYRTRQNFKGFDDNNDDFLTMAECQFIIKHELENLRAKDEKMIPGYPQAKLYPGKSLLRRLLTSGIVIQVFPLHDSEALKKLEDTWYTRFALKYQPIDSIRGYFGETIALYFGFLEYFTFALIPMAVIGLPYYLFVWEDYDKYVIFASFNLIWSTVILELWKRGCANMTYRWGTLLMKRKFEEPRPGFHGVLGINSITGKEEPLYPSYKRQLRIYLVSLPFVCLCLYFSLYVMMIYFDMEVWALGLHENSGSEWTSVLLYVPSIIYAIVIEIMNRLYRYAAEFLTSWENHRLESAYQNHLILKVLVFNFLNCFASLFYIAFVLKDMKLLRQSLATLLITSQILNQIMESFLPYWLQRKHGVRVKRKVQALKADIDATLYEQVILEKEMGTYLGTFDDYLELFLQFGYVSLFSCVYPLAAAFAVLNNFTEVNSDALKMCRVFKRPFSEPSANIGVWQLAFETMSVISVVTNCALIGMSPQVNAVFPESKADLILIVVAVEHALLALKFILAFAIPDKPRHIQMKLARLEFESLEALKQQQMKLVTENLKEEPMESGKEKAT
UniProt Q2TAA5: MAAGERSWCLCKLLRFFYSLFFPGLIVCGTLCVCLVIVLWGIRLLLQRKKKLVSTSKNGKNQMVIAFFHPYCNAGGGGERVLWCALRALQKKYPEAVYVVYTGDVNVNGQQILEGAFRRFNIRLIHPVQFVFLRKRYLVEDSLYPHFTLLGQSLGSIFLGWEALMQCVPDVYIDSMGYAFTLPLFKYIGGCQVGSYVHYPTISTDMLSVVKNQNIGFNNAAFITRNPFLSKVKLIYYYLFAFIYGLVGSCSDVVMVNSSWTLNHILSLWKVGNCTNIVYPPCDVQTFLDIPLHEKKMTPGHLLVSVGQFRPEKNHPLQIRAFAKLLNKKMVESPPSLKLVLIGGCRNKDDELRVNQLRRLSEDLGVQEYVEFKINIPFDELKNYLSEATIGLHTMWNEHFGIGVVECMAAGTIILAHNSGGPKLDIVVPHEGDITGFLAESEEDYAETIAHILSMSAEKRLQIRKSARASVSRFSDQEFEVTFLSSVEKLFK
UniProt P35626: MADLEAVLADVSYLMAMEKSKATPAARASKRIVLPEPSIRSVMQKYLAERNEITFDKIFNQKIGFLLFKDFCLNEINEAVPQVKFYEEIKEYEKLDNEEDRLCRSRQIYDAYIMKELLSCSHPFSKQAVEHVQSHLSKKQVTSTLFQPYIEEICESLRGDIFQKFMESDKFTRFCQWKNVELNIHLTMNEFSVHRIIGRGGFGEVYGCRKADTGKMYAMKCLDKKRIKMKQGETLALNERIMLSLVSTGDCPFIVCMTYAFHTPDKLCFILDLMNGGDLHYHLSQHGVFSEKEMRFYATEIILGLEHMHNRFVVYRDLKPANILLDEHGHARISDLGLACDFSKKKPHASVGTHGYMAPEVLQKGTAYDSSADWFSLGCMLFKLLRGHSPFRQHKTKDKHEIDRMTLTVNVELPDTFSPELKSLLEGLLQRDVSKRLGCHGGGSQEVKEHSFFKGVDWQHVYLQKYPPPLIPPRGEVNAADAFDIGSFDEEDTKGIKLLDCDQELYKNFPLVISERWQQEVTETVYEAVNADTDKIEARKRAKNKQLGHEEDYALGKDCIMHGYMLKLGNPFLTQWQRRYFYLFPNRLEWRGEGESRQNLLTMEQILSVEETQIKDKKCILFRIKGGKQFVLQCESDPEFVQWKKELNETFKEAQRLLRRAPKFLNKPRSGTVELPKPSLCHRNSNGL
UniProt O95433, whole entry: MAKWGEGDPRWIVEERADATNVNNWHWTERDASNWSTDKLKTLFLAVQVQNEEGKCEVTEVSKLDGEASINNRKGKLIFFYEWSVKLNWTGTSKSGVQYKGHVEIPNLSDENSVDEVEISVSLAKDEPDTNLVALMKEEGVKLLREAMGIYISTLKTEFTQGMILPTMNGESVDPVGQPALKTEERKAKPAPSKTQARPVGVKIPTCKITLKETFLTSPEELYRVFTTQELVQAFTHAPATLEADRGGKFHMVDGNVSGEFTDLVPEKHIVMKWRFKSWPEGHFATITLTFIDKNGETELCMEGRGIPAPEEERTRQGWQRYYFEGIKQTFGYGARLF

compound: COc1ccc(Cn2ccc3ccc(C(=O)NO)cc32)cc1; assay: dose-dependent thermal stabilisation call (2D-TPP, DLPTP, 10% FDR) (binary (1 = stabilised)); higher = stabilised by the compound; details: system: HL-60 intact cells; concentration range 0.04-10 µM

| Target | dose-dependent thermal stabilisation call |
| --- | --- |
| ACP6 (UniProt Q9NPH0) | inactive: 0 |
| ANTXR2 (UniProt P58335) | inactive: 0 |
| AMPD3 (UniProt Q01432) | inactive: 0 |
| ACP2 (UniProt P11117) | inactive: 0 |
| AGPAT1 (UniProt Q99943) | inactive: 0 |
| ADK (UniProt P55263) | active: 1 |
| APRT (UniProt P07741) | inactive: 0 |
| AGPS (UniProt O00116) | inactive: 0 |
| ALG1 (UniProt Q9BT22) | inactive: 0 |
| ALDH18A1 (UniProt P54886) | inactive: 0 |
| ALMS1 (UniProt Q8TCU4) | inactive: 0 |
| AP3D1 (UniProt O14617) | inactive: 0 |
| ADAT2 (UniProt Q7Z6V5) | inactive: 0 |
| ARHGAP4 (UniProt P98171) | inactive: 0 |
| ALDH1L1 (UniProt O75891) | inactive: 0 |
| ACTR1A (UniProt P61163) | inactive: 0 |
| APOBEC3B (UniProt Q9UH17) | inactive: 0 |
| ADD3 (UniProt Q9UEY8) | inactive: 0 |
| AKT1S1 (UniProt Q96B36) | inactive: 0 |

Already shown: entries from further up.

| Target | dose-dependent thermal stabilisation call |
| --- | --- |
| AGPAT1 (UniProt Q99943) | inactive: 0 |
| ADK (UniProt P55263) | active: 1 |

Next results

| Target | dose-dependent thermal stabilisation call |
| --- | --- |
| ADAM10 (UniProt O14672) | inactive: 0 |
| APITD1 (UniProt Q8N2Z9) | inactive: 0 |
| AKT2 (UniProt P31751) | inactive: 0 |
| AFG3L2 (UniProt Q9Y4W6) | inactive: 0 |
| ANO10 (UniProt Q9NW15) | inactive: 0 |
| AOAH (UniProt P28039) | inactive: 0 |
| AP3S1 (UniProt Q92572) | inactive: 0 |
| ALG11 (UniProt Q2TAA5) | inactive: 0 |
| ACBD6 (UniProt Q9BR61) | inactive: 0 |
| ADRBK2 (UniProt P35626) | inactive: 0 |
| ANP32E (UniProt Q9BTT0) | inactive: 0 |
| AHSA1 (UniProt O95433) | inactive: 0 |
| ARID1B (UniProt Q8NFD5) | inactive: 0 |
| AHCYL2 (UniProt Q96HN2) | inactive: 0 |
| APEX1 (UniProt P27695) | inactive: 0 |
| ACSL4 (UniProt O60488) | inactive: 0 |
| AOF1 (UniProt Q8NB78) | inactive: 0 |
| ACO1 (UniProt P21399) | inactive: 0 |
